# Measurements published in US10947260B2, “Phosphinolactone derivatives and pharmaceutical uses thereof” (INSTITUT NATIONAL DE LA SANTE ET DE LA RECHERCHE MEDICALE …, priority 2016, dated 2021).
# Sequences of proteins named here, by UniProt entry; tags and fusion partners are left off.
# UniProt Q60492, whole entry: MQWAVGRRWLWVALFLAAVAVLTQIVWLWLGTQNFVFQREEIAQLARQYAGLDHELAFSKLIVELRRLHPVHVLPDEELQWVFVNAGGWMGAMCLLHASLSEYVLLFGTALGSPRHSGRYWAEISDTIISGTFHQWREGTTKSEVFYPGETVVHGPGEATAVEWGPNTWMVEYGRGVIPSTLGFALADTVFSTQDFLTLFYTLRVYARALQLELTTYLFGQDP
# “Also recorded” adds a separate entry of the source. At least one structure is not confirmed: it was looked up by name or label, or the drawing left a doubt.
# Key:
# [1] = system: mice treated with Aβ25-35; test: Spontaneous alternation in the Y-maze, Aβ25-35 amyloid toxicity model; type: in vivo; details: 0.7, 1.5 and 3 mg/kg IP before Aβ25-35 ICV; Day 7
# Procedure: Male mice (RjOrl:SWISS) from Janvier laboratories (Le Genest-Saint-Isle, France), aged 7-9 weeks and weighing 32±2 g were used for this study. The animals were grouped in plastic cages with free access to the […] and water, in a regulated environment (23±1° C., humidity 40-60%, 12 h light/dark cycle).
# The compounds were solubilized in physiological saline solution (0.9% NaCl) or in dimethylsulfoxide (DMSO) 10% in the saline solution and administered via intraperitoneal route (IP) in a volume of 100 μl per 20 g body weight.
# The amyloid-β[25-35] peptide (Aβ25-35) and control peptide (Sc.Aβ) were obtained from Genepep (Saint-Jean-de-Vedas, France). They were solubilized in injectable distilled water at a concentration of 3 mg/ml and stored at −20° C. Before injection, the peptides were incubated at 37° C. for 4 days, which enabled the Aβ25-35 peptide but not the Sc.Aβ, to form oligomers. They were administered via intracerebroventricular route (ICV). […]
# The animals were tested for spontaneous alternation performance in a Y-maze, an index of spatial working memory. […] The series of arm entries, including any returns in the same arm were visually analysed. […] The maximum number of alternations is therefore the total number of arm entries less two, and alternation percentage is calculated as (actual alternations/maximum possible alternations)×100. […]
# [2] = system: mice treated with scopolamine; test: Passive avoidance, scopolamine amnesia model; type: in vivo
# Procedure: FIG. 5: Anti-amnesic effect of compound 3b in mice treated with scopolamine: (a, b) spontaneous alternation in Y-maze, and (c, d) passive avoidance. The mice were given compound 3b (0.03-1.5 mg/kg IP) 10 min before scopolamine (0.5 mg/kg SC), 20 min before the Y-maze session or passive avoidance training. Y-maze test: (a) spontaneous alternation and (b) total number of arm entries; retention of passive avoidance: (c) step-through latency and (d) escape latency. […]
# The apparatus contained two compartments (15×20×15 cm in height) with one light part having walls in white PVC and the other dark with walls in black PVC and a grid floor. […] Step-through latency (STL) i.e. the time taken to enter the dark compartment and the number of cries, were recorded. […] Step-through latency was recorded up to 300 s.
# Finally, a first mechanistic analysis of the pharmacological effect in vivo of compound 3b was carried out. With the objective of confirming that the compound, neuroprotective against amyloid toxicity, could also be anti-amnesic in a pharmacological amnesia model, we first determined its effectiveness against the amnesic effects of scopolamine. […]
# [3] = molecular target: T1, sigma-1 receptor (Cavia porcellus, UniProt Q60492); test: Binding of [3H](+)-pentazocine in guinea pig forebrain membranes; details: concentration range 10 nM to 100 μM
# T1 construct: in preparations of guinea pig forebrain membranes; from tissue; host or cells: guinea pig forebrain membranes
# [4] = system: mice treated with Aβ25-35
# [5] = 0.3-1.5 mg/kg IP, Aβ25-35 animals
smiles,measurement,setting,value
"CC1(C)COP(=O)(c2cccc(Cl)c2)C(C)(C)N1 (racemic) [Compound 3b, (±)-2-(3-Chlorophenyl)-2-oxo-3,3,5,5-tetramethyl-[1,4,2]-oxazaphosphinane]",spontaneous alternation deficit induced by Aβ25-35 (Y-maze),[1],significantly prevented this deficit
same,reduced step-through latency induced by scopolamine,[2]; 0.1 and 0.3 mg/kg,attenuates reduced step-through latency
same,increase in escape latency induced by scopolamine,[2]; all tested doses 0.03-1.5 mg/kg IP,reduces the increase in escape latency
same,binding of [3H](+)-pentazocine on the sigma-1 receptor,[3],does not modify binding; also recorded: does not compete with the sigma-1 radiotracer
same,decrease in synaptophysin expression,"[4]; 0.7 mg/kg IP, hippocampus",prevented
same,increase in IL6 tissue level,"[4]; 0.7 mg/kg IP, hippocampus",attenuated but non-significantly
same,increase in TNFα tissue level,"[4]; 0.7 mg/kg IP, hippocampus",prevented
same,Bax/Bcl2 ratio,[4]; [5],significantly reduces
same,increase in Bax in hippocampus,[4]; [5],significantly reduces the increase in Bax
same,"biochemical markers of toxicity (oxidative stress, apoptosis, neuroinflammation, synaptic and cholinergic tonus changes)",[4]; at its active dose (0.7 mg/kg IP),attenuated or blocked
